# Experimental data: PubChem BioAssay AID1259300 (Sanger Institute, 2017)
# Assay: 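Which knock-downs harm HCT15 alone or synergise with the drugs BYL719, cetuximab or trametinib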 (primary screen)
# System: HCT15 colorectal cancer cells
# Reagents: siRNA pool against human genes
# Conditions: anchor drug or DMSO vehicle added 24 h after seeding: BYL719 1 µM, cetuximab 5 µg/ml, trametinib 10 nM; drug doses chosen to barely affect viability alone
# Measured: 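Cell viability after knock-down, as fraction of non-targeting pool wells averaged over replicates, plus robust z-score for knock-down alone; synergy score per drug (BYL719 1 µM, cetuximab 5 µg/ml, trametinib 10 nM)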
# Reading the numbers: viability z-score, siRNA alone: higher = more viable cells after knock-down; viability vs non-targeting, siRNA alone: higher = more viable cells
# Hit rule: 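a knock-down without drug that drives the robust viability z-score under -3 is active, i.e. essential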
# Calls: active = essential: knock-down alone lowers viability (z below -3); inactive = no strong viability loss with knock-down alone
# The whole screen tested 794 reagents; below is a random part of them. In the full data, 18 (2.3%) were called active. 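Calls rest on knock-down alone, not drug synergy; depositor treated synergy scores above 0.15 as synergistic; drug doses alone had little viability effect.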 A number with no mark means an inactive call. No viability above 1 is reported: the scale is capped. Not all columns of the deposit are shown. The record does not give: the amount of reagent, the time to read-out.
Gene,"viability z-score, siRNA alone","viability vs non-targeting, siRNA alone"
TAOK2,0.625,1
KCNH2,0.625,1
MARK1,-1.34,0.857
TPD52L3,0.625,1
ALK,0.625,1
INSRR,0.625,1
CAMK2D,0.625,1
NF1,0.625,1
CAMKK2,0.625,1
PTK2,-1.29,0.861
STK17A,0.625,1
ZC3H11A,0.625,1
DTYMK,0.625,1
TEC,-1.59,0.839
RPS6KB1,0.625,1
ACO1,-0.346,0.929
TRIM27,0.625,1
MGA,-1.61,0.838
WNK3,0.625,1
MAST1,0.625,1

Only “viability vs non-targeting, siRNA alone” (2 entries from above):
CAMKK2: 1
PTK2: 0.861
